Measurements published in patent US20220048884A1, “NRF2 ACTIVATOR” (BIOGEN MA INC., priority 2017, published 2022).
Some of these results come from one statement about several compounds together. One block for each molecule: values may come before it.

Tested on: NRF2
Assay: PathHunter Nuclear Translocation assay (DiscoverX), agonist format
Assay type: cell-based
Details: 6 hours incubation, 10 concentrations, 30 μM top concentration
Source text: Vehicle concentration was 1%.
Microplates were read following signal generation with a PerkinElmer Envision™ instrument for chemiluminescent signal detection.

Structure (SMILES): CCn1nnc2c(C)c(C(CC(=O)O)c3ccc4c(c3)CN(C(=O)Cc3ccccc3)CC4)ccc21 (single isomer, unassigned) [Example 41-Ent1, 3-(1-Ethyl-4-methyl-1H-benzo[d][1,2,3]triazol-5-yl)-3-(2-(2-phenylacetyl)-1,2,3,4-tetrahydroisoquinolin-7-yl)propanoic acid]
EC50: > 10 µM

Structure (SMILES): COc1cc(C)c(C(CC(=O)O)c2ccc3c(c2)CN(C(=O)c2c(C)c(C)cc(C)c2C)CC3)cn1 (single isomer, unassigned) [Example 57-Ent1, 3-(6-Methoxy-4-methyl-3-pyridyl)-3-[2-(2,3,5,6-tetramethylbenzoyl)-3,4-dihydro-1H-isoquinolin-7-yl]propanoic acid]
EC50: < 10 µM

Structure (SMILES): COc1cc(C)c(C(CC(=O)O)c2ccc3c(c2)CN(C(=O)c2c(C)c(C)cc(C)c2C)CC3)cn1 (single isomer, unassigned) [Example 57-Ent2, 3-(6-Methoxy-4-methyl-3-pyridyl)-3-[2-(2,3,5,6-tetramethylbenzoyl)-3,4-dihydro-1H-isoquinolin-7-yl]propanoic acid]
EC50: < 1 µM

Structure (SMILES): Cc1cc(C#N)ccc1C(CC(=O)O)c1ccc2c(c1)CN(C(=O)c1c(C)c(C)cc(C)c1C)CC2 (single isomer, unassigned) [Example 58-Ent1, 3-(4-cyano-2-methyl-phenyl)-3-[2-(2,3,5,6-tetramethylbenzoyl)-3,4-dihydro-1H-isoquinolin-7-yl]propanoic acid]
EC50: < 10 µM

Structure (SMILES): Cc1cc(C(N)=O)ccc1C(CC(=O)O)c1ccc2c(c1)CN(C(=O)c1c(C)c(C)cc(C)c1C)CC2 (single isomer, unassigned) [Example 58-Ent2, 3-(4-carbamoyl-2-methyl-phenyl)-3-[2-(2,3,5,6-tetramethylbenzoyl)-3,4-dihydro-1H-isoquinolin-7-yl]propanoic acid]
EC50: > 10 µM

Structure (SMILES): CCn1nnc2c(C)c(C(CC(=O)O)c3ccc4c(c3)CN(C(=O)c3ccccc3)CC4C)ccc21 (single isomer, unassigned) [Example 64-Ent1, 3-(2-benzoyl-4-methyl-1,2,3,4-tetrahydroisoquinolin-7-yl)-3-(1-ethyl-4-methyl-1H-benzo[d][1,2,3]triazol-5-yl)propanoic acid]
EC50: > 10 µM

Structure (SMILES): CCn1nnc2c(C)c(C(CC(=O)O)c3cc(C)c4c(c3)CN(C(=O)c3c(C)c(C)cc(C)c3C)CC4)ccc21 (single isomer, unassigned) [Example 68, 3-(1-ethyl-4-methyl-benzotriazol-5-yl)-3-[5-methyl-2-(2,3,5,6-tetramethylbenzoyl)-3,4-dihydro-1H-isoquinolin-7-yl]propanoic Acid]
EC50: < 1 µM

Structure (SMILES): CCn1nnc2c(C)c([C@@H](CC(=O)O)c3ccc4c(c3)CN(C(=O)c3ccc5ccccc5c3)CC4)ccc21 (single isomer, unassigned) [Example 70-Ent1]
EC50: < 1 µM

Structure (SMILES): CCn1nnc2c(C)c([C@H](CC(=O)O)c3ccc4c(c3)CN(C(=O)c3ccc5ccccc5c3)CC4)ccc21 (single isomer, unassigned) [Example 70-Ent2]
EC50: < 1 µM

Structure (SMILES): CCn1nnc2c(C)c([C@H](c3ccc4c(c3)CN(C(=O)c3cc(C)c(C)c(C)c3)CC4)[C@@H](C)C(=O)O)ccc21 (single isomer, unassigned) [Example 108]
EC50: < 10 µM

Structure (SMILES): CCn1nnc2c(C)c([C@H](c3ccc4c(c3)CN(C(=O)c3cc(C)c(C)c(C)c3)CC4)[C@H](C)C(=O)O)ccc21 (single isomer, unassigned) [Example 109]
EC50: < 1 µM

Structure (SMILES): CCc1cccc(CC)c1C(=O)N1CCc2ccc([C@H](CC(=O)O)c3ccc4c(nnn4CC)c3C)cc2C1 (single isomer, unassigned) [Example 115]
EC50: < 10 µM

Structure (SMILES): CCc1cccc(CC)c1C(=O)N1CCc2ccc([C@@H](CC(=O)O)c3ccc4c(nnn4CC)c3C)cc2C1 (single isomer, unassigned) [Example 116]
EC50: < 1 µM

Structure (SMILES): Cc1ccc(C(=O)N2CCc3ccc([C@H](CC(=O)O)c4cc5ncn(C)c5cc4F)cc3C2)cc1C (single isomer, unassigned) [Example 149]
EC50: > 10 µM

Structure (SMILES): CCn1nnc2c(C)c(C(CC(=O)O)c3ccc4c(c3)C(C)N(C(=O)c3ccccc3)CC4)ccc21 (stereo in doubt) [Example 60, 3-[(1R)-2-benzoyl-1-methyl-3,4-dihydro-1H-isoquinolin-7-yl]-3-(1-ethyl-4-methyl-benzotriazol-5-yl)propanoic Acid]
EC50: > 10 µM

Structure (SMILES): CCn1nnc2c(C)c(C(CC(=O)O)c3ccc4c(c3)CN(C(=O)C3CCCCC3)CC4)ccc21 (centres unmarked) [Example 6, 3-(2-(cyclohexanecarbonyl)-1,2,3,4-tetrahydroisoquinolin-7-yl)-3-(1-ethyl-4-methyl-1H-benzo[d][1,2,3]triazol-5-yl)propanoic acid]
EC50: < 10 µM

Second part, the molecule after the results:

EC50: < 10 µM
Structure (SMILES): CCn1nnc2c(C)c(C(CC(=O)O)c3ccc4c(c3)CN(C(=O)c3ccc(Cl)c(Cl)c3)CC4)ccc21 (single isomer, unassigned) [Example 12-Ent2, 3-[2-(3,4-dichlorobenzoyl)-3,4-dihydro-1H-isoquinolin-7-yl]-3-(1-ethyl-4-methyl-benzotriazol-5-yl)propanoic acid]

EC50: < 10 µM
Structure (SMILES): CCn1nnc2c(C)c(C(CC(=O)O)c3ccc4c(c3)CN(C(=O)c3cc(C)cc(C)c3)CC4)ccc21 (single isomer, unassigned) [Example 31-Ent1, 3-[2-(3,5-Dimethylbenzoyl)-3,4-dihydro-1H-isoquinolin-7-yl]-3-(1-ethyl-4-methyl-benzotriazol-5-yl)propanoic acid]

EC50: < 1 µM
Structure (SMILES): CCn1nnc2c(C)c([C@@H](CC(=O)O)c3ccc4c(c3)CN(C(=O)c3ccc(C)c(C)c3)CC4)ccc21 (single isomer, unassigned) [Example 110]

EC50: < 1 µM
Structure (SMILES): CCn1nnc2c(C)c([C@H](CC(=O)O)c3ccc4c(c3)CN(C(=O)c3ccc(C)c(C)c3)CC4)ccc21 (single isomer, unassigned) [Example 111]

EC50: < 1 µM
Structure (SMILES): CCn1nnc2c(C)c([C@@H](CC(=O)O)c3ccc4c(c3)CN(C(=O)c3cc(C)cc(C)c3C)CC4)ccc21 (single isomer, unassigned) [Example 117]

EC50: < 10 µM
Structure (SMILES): CCn1nnc2c(C)c([C@H](CC(=O)O)c3ccc4c(c3)CN(C(=O)c3cc(C)cc(C)c3C)CC4)ccc21 (single isomer, unassigned) [Example 118]

EC50: < 10 µM
Structure (SMILES): CCn1nnc2c(C)c([C@@H](CC(=O)O)c3ccc4c(c3)CN(C(=O)c3cc(C)ccc3C)CC4)ccc21 (single isomer, unassigned) [Example 119]

EC50: < 10 µM
Structure (SMILES): CCn1nnc2c(C)c([C@H](CC(=O)O)c3ccc4c(c3)CN(C(=O)c3cc(C)ccc3C)CC4)ccc21 (single isomer, unassigned) [Example 120]

EC50: < 10 µM
Structure (SMILES): CCn1nnc2c(C)c([C@@H](CC(=O)O)c3ccc4c(c3)CN(C(=O)c3cc(C)ccc3F)CC4)ccc21 (single isomer, unassigned) [Example 121]

EC50: < 10 µM
Structure (SMILES): CCn1nnc2c(C)c([C@H](CC(=O)O)c3ccc4c(c3)CN(C(=O)c3cc(C)ccc3F)CC4)ccc21 (single isomer, unassigned) [Example 122]

EC50: < 10 µM
Structure (SMILES): CCn1nnc2c(C)c(C(CC(=O)O)c3ccc4c(c3)CN(C(=O)c3ccc(C)cc3)CC4)ccc21 (centres unmarked) [Example 1, 3-(1-ethyl-4-methyl-1H-benzo[d][1,2,3]triazol-5-yl)-3-(2-(4-methylbenzoyl)-1,2,3,4-tetrahydroisoquinolin-7-yl)propanoic acid]

EC50: < 10 µM
Structure (SMILES): CCn1nnc2c(C)c(C(CC(=O)O)c3ccc4c(c3)CN(C(=O)c3ccc(OC)cc3)CC4)ccc21 (centres unmarked) [Example 2, 3-(1-ethyl-4-methyl-1H-benzo[d][1,2,3]triazol-5-yl)-3-(2-(4-methoxybenzoyl)-1,2,3,4-tetrahydroisoquinolin-7-yl)propanoic acid]

EC50: > 10 µM
Structure (SMILES): CCn1nnc2c(C)c(C(CC(=O)O)c3ccc4c(c3)CN(C(=O)c3ccc(O)cc3)CC4)ccc21 (centres unmarked) [Example 3, 3-(1-ethyl-4-methyl-1H-benzo[d][1,2,3]triazol-5-yl)-3-(2-(4-hydroxybenzoyl)-1,2,3,4-tetrahydroisoquinolin-7-yl)propanoic acid]

EC50: < 10 µM
Structure (SMILES): CCn1nnc2c(C)c(C(CC(=O)O)c3ccc4c(c3)CN(C(=O)c3ccc(Cl)cc3)CC4)ccc21 (centres unmarked) [Example 4, 3-(2-(4-chlorobenzoyl)-1,2,3,4-tetrahydroisoquinolin-7-yl)-3-(1-ethyl-4-methyl-1H-benzo[d][1,2,3]triazol-5-yl)propanoic acid]

EC50: < 10 µM
Structure (SMILES): CCn1nnc2c(C)c(C(CC(=O)O)c3ccc4c(c3)CN(C(=O)c3ccccc3Cl)CC4)ccc21 (centres unmarked) [Example 7, 3-(2-(2-chlorobenzoyl)-1,2,3,4-tetrahydroisoquinolin-7-yl)-3-(1-ethyl-4-methyl-1H-benzo[d][1,2,3]triazol-5-yl)propanoic acid]

EC50: < 10 µM
Structure (SMILES): CCn1nnc2c(C)c(C(CC(=O)O)c3ccc4c(c3)CN(C(=O)c3ccc(Cl)cc3Cl)CC4)ccc21 (centres unmarked) [Example 8, 3-(2-(2,4-dichlorobenzoyl)-1,2,3,4-tetrahydroisoquinolin-7-yl)-3-(1-ethyl-4-methyl-1H-benzo[d][1,2,3]triazol-5-yl)propanoic acid]

EC50: < 1 µM
Structure (SMILES): CCn1nnc2c(C)c(C(CC(=O)O)c3ccc4c(c3)CN(C(=O)c3ccc(Cl)c(Cl)c3)CC4)ccc21 (centres unmarked) [Example 11, 3-(2-(3,4-dichlorobenzoyl)-1,2,3,4-tetrahydroisoquinolin-7-yl)-3-(1-ethyl-4-methyl-1H-benzo[d][1,2,3]triazol-5-yl)propanoic acid]

EC50: < 1 µM
Structure (SMILES): CCn1nnc2c(C)c(C(CC(=O)O)c3ccc4c(c3)CN(C(=O)c3cc(Cl)cc(Cl)c3)CC4)ccc21 (centres unmarked) [Example 13, 3-(2-(3,5-dichlorobenzoyl)-1,2,3,4-tetrahydroisoquinolin-7-yl)-3-(1-ethyl-4-methyl-1H-benzo[d][1,2,3]triazol-5-yl)propanoic acid]

EC50: > 10 µM
Structure (SMILES): CCn1nnc2c(C)c(C(CC(=O)O)c3ccc4c(c3)CN(C(=O)c3ncccn3)CC4)ccc21 (centres unmarked) [Example 14, 3-(1-ethyl-4-methyl-1H-benzo[d][1,2,3]triazol-5-yl)-3-(2-(pyrimidine-2-carbonyl)-1,2,3,4-tetrahydroisoquinolin-7-yl)propanoic acid]
